Data taken from ChEMBL document CHEMBL3988442, “University of Dundee, Small-Polar-MMV Screening Library” (2021).

By UniProt entry, the sequences of proteins in these tests, tags left out.
UniProt E9BF75, entry or part of it: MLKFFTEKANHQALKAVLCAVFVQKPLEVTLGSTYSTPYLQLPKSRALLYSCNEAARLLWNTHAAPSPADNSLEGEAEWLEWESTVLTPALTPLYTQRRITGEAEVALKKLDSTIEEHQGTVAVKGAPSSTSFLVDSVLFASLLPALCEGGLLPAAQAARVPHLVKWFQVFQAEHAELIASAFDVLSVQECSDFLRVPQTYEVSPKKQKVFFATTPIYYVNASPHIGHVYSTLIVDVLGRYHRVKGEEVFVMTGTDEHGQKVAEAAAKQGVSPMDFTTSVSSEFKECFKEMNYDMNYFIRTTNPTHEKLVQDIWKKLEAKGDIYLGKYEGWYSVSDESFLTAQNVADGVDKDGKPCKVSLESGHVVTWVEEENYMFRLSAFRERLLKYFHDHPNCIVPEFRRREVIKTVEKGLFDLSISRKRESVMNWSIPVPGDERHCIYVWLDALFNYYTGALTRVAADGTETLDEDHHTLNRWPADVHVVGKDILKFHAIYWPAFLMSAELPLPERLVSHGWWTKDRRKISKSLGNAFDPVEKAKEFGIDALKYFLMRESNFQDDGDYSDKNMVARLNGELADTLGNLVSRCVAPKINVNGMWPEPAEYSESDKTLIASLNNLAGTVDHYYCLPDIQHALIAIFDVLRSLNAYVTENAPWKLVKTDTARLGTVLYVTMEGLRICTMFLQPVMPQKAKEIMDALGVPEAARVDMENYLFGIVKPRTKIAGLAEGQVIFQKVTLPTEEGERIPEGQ

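Methionyl-tRNA synthetase (putative), Leishmania donovani (UniProt E9BF75). Primary screen of methionyl-tRNA synthetase; the read-out is not stated. The test concentration is not given. Values are per cent inhibition. Of about 68,000 compounds tested this way, about 24 (0.035%) reached 50% or more in at least one test.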

All values are in %. The record does not define 0% and 100%; most values in the screen are far below 50% and negative numbers occur (in some assays of this library far below -100). This is an unselected part of the compounds tested.

| SMILES | Inhibition |
|---|---|
| `CC(=O)N1CC(C(=O)Nc2cccc(OC(F)F)c2)C1` | 15.11 |
| `CC(C)NC(=O)c1ccc2c(c1)C1(CCN(C(C)C)CC1)C(=O)N2` | 19.8 |
| `OC(COCc1cccs1)CN1CCC(c2ccn[nH]2)CC1` (stereo not given) | 7.981 |
| `C=C(C)COc1ccccc1CNCCc1cc(O)nc(C)n1` | 9.148 |
| `Cc1ccc(Cl)cc1N1CCN(CC(=O)NC(C)c2ccco2)CC1` (stereo not given) | 27.54 |
| `O=C(CCn1ccc(=O)[nH]c1=O)N1CCC(OCc2cccnc2)CC1` | 0 |
| `Cc1nc(CN2CCN(C(=O)c3c(C)noc3C)CC2)cs1` | 2.611 |
| `COc1ccc(C)cc1CN1CCC(c2cc3ncccc3cn2)CC1` | 49.87 |
| `CCCn1c(C)c(CC(=O)NC(C)(C)CO)c2c1CC(C)(C)CC2=O` | 17.71 |
| `Cn1nc(C2CCCN(Cc3ccsc3)C2)c2nccnc21` (stereo not given) | 7.877 |
| `Cc1nc(C(NC(=O)CN(C)C(C)C)c2ccccc2F)no1` (stereo not given) | 9.366 |
| `c1ccc(CO[C@@H]2CO[C@@]3(CCN(Cc4ccccn4)C3)C2)nc1` | 11.2 |
| `COCCN1C2(CCN(CC3CC3)C2)c2ccccc2S1(=O)=O` (stereo not given) | 3.067 |
| `CC(C)N(C)Cc1nnc2n1CCN(Cc1ccncc1)CC2` | 12.97 |
| `N[C@H]1CN(S(=O)(=O)N2CCCC2)C[C@@H]1c1ccccc1` | 15.62 |
| `CCc1cc(N2C[C@H](C3CC3)[C@@H](N)C2)nc(N2CCCC2)n1` | 9.966 |
| `Cc1ccc(N2CCO[C@H]3CN(Cc4cccnc4)C[C@H]32)nn1` | 4 |
| `O=C(NCc1cccnc1)[C@@H]1C[C@@H]2CCN(c3ncc(F)cn3)C[C@@H]2O1` | 7.692 |
| `Cc1nn(C)c2nc(-c3ccccn3)nc(NCCC3CCCN3C)c12` (stereo not given) | 7.521 |
| `Cc1ccc(OCCN(C)S(=O)(=O)c2cnn(C)c2)cc1` | 22.08 |
| `c1csc(-c2noc(C3CNC3)n2)c1` | 4.802 |
| `c1ccc(CCc2n[nH]c(C3CCOC3)n2)cc1` (stereo not given) | 19.24 |
| `CCC[C@@H]1CN(Cc2nnc(-c3cccc(F)c3)o2)C[C@H]1NC(C)=O` | 9.774 |
| `COCC(=O)NCc1cccc(OCCN(C)C2CCOCC2)c1` | 8.152 |
| `CCc1noc(-c2ccc(SCC(=O)O)nc2)n1` | 25.47 |
| `CCn1ncc2c1CN(C(=O)Cc1ccccn1)CC2COC` (stereo not given) | 13.74 |
| `CCN1CCN(C(=O)CCC2CCN(C(=O)CCSC)CC2)CC1` | 7.453 |
| `COc1cc(COCC2CCN(Cc3cccnc3)CC2)cc(OC)c1` | 5.932 |
| `CN(CCc1ccncc1)C(=O)C1CSCN1C(=O)C1CCCC1` (stereo not given) | 7.652 |
| `COc1cccc(CN2CCCC(Nc3cccc(F)c3)C2)c1O` (stereo not given) | 13.75 |
| `O=S(=O)(CC1CCCCC1)NCc1ccc(O)nc1` | 11.33 |
| `Cc1nc2sccn2c1CN(CCCN(C)C)Cc1ccco1` | 14.69 |
| `O=C1[C@@H]2CCN(CC3CCOCC3)C[C@@H]2OCCN1c1ccccc1` | 10.8 |
| `NC(=O)C1(c2cnccn2)CCCN1Cc1cccc(Cl)c1` (stereo not given) | 18.64 |
| `CC(C)Oc1ccc(CC2=N[C@](C)(CO)CO2)cc1` | 4.348 |
| `COCC(=O)N1CCn2c(Cn3cncn3)cnc2C1C` (stereo not given) | 9.589 |
| `O=C(CSCc1ccccn1)NCC1CC1` | -4.326 |
| `CO[C@H]1CO[C@@]2(CCCN(C(=O)C3CC=CC3)C2)C1` | 15.5 |
| `O=C(Nc1cccnc1)[C@H]1CN(Cc2cccs2)C[C@H]2OCC[C@@H]12` | 10.64 |
| `CN(C)C(=O)CNC(=O)c1ccc2ccc(N(C)CC3CC3)n2c1` | 22.76 |
| `CCC(C)(NCc1cccc(NC(C)=O)c1)c1nc(C)cs1` (stereo not given) | 0 |
| `CCc1cc(NCCc2cccnc2)n2nc(C)c(C)c2n1` | 5.222 |
| `COc1cccc(CN2CC(O)CN(S(C)(=O)=O)CC2=O)c1OC` (stereo not given) | 11.23 |
| `CCn1nc(C)c2nnn(CC(=O)Nc3cccc(C)c3)c(=O)c21` | 6.281 |
| `Fc1cccc(CN2CCC(c3noc(-c4cnccn4)n3)CC2)c1F` | 17.09 |
| `Cc1ccc(N2CCN(C(=O)CCc3n[nH]c(C)n3)CC2=O)cc1` | 20.5 |
| `c1ccc2sc(CN3CCOC(Cn4cccn4)C3)nc2c1` (stereo not given) | 2.614 |
| `CCCNCc1cn(Cc2ccccc2)nc1-c1cccnc1` | 12.53 |
| `CCN1CCc2cc(-c3cncn3CCNC3CCS(=O)(=O)C3)ccc21` (stereo not given) | 17.32 |
| `Cn1cc(CN2CCN3C[C@H](Oc4cccnc4)C[C@H]3C2)cn1` | 18.52 |
| `O=C1CC(CNc2cncc(Br)c2)c2ccccc2N1` (stereo not given) | 13.17 |
| `CC1CCN(C(=O)C(C)n2cc(Br)cn2)CC1` (stereo not given) | -27.39 |
| `COCCN(Cc1ccccc1)Cc1nc(-c2ccsc2)no1` | 14.66 |
| `CCn1c(CN(C)C(=O)c2ccc(N(C)C)nc2)nc2ccccc21` | 15.75 |

The first 4 entries again:

{"smiles": "CC(=O)N1CC(C(=O)Nc2cccc(OC(F)F)c2)C1", "Inhibition": 15.11}
{"smiles": "CC(C)NC(=O)c1ccc2c(c1)C1(CCN(C(C)C)CC1)C(=O)N2", "Inhibition": 19.8}
{"smiles": "OC(COCc1cccs1)CN1CCC(c2ccn[nH]2)CC1", "stereo": "stereo not given", "Inhibition": 7.981}
{"smiles": "C=C(C)COc1ccccc1CNCCc1cc(O)nc(C)n1", "Inhibition": 9.148}